Here are results for 32 targets from the supplement of paper PMC10849652.

Amino acid sequences for entries named in this document (tags omitted). A change or cut given only in a name is not applied to a line headed by its entry.
UniProt Q16719: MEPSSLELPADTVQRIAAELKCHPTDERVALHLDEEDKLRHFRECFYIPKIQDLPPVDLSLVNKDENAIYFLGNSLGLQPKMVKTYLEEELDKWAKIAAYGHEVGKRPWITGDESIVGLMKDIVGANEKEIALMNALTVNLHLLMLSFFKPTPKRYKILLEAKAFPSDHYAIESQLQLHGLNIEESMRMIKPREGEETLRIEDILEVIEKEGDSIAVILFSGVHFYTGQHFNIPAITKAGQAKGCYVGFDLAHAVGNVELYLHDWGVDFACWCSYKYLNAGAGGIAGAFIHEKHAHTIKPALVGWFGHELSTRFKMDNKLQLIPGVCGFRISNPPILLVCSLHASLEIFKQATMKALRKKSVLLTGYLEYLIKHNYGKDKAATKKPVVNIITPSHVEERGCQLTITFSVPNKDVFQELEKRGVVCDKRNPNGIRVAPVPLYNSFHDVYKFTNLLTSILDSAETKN
UniProt Q6YP21: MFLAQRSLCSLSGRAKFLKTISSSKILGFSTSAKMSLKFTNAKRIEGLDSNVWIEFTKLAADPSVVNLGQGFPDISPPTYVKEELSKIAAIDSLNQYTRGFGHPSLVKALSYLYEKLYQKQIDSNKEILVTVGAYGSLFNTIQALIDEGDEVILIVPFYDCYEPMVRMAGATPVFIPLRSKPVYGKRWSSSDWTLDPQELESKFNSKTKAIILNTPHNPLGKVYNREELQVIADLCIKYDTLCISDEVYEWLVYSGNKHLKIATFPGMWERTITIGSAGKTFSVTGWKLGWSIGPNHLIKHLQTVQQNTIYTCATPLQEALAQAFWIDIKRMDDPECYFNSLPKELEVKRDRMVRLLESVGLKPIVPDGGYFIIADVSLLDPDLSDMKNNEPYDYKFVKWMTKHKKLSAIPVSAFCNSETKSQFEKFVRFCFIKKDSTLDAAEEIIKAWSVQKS
UniProt Q9BRT6: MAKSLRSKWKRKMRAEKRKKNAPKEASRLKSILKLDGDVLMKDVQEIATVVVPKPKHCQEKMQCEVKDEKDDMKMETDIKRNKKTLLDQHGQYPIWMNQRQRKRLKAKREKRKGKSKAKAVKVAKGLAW
UniProt Q92539: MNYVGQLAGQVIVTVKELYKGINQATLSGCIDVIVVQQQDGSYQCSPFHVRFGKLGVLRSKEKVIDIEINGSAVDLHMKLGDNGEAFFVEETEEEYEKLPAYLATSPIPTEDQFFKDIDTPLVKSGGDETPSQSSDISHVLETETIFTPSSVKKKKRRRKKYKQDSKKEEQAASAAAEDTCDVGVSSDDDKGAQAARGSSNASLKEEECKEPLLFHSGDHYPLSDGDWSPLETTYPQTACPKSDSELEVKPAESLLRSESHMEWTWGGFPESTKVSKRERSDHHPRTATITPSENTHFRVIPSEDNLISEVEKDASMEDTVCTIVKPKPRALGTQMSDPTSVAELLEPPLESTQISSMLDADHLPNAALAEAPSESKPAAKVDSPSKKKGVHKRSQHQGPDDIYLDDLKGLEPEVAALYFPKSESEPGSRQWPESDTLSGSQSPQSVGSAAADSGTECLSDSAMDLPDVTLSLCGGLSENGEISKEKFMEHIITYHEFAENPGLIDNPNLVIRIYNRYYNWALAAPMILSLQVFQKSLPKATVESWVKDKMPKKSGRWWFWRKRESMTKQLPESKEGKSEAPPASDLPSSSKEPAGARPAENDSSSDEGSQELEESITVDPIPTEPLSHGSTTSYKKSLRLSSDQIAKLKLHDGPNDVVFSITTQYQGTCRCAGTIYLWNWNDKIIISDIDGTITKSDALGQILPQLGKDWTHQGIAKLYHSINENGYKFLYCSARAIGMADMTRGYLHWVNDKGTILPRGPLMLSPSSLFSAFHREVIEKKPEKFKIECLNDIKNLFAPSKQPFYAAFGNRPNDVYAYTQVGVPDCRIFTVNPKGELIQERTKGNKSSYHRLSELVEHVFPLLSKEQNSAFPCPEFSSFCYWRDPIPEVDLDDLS
UniProt Q9P2J5: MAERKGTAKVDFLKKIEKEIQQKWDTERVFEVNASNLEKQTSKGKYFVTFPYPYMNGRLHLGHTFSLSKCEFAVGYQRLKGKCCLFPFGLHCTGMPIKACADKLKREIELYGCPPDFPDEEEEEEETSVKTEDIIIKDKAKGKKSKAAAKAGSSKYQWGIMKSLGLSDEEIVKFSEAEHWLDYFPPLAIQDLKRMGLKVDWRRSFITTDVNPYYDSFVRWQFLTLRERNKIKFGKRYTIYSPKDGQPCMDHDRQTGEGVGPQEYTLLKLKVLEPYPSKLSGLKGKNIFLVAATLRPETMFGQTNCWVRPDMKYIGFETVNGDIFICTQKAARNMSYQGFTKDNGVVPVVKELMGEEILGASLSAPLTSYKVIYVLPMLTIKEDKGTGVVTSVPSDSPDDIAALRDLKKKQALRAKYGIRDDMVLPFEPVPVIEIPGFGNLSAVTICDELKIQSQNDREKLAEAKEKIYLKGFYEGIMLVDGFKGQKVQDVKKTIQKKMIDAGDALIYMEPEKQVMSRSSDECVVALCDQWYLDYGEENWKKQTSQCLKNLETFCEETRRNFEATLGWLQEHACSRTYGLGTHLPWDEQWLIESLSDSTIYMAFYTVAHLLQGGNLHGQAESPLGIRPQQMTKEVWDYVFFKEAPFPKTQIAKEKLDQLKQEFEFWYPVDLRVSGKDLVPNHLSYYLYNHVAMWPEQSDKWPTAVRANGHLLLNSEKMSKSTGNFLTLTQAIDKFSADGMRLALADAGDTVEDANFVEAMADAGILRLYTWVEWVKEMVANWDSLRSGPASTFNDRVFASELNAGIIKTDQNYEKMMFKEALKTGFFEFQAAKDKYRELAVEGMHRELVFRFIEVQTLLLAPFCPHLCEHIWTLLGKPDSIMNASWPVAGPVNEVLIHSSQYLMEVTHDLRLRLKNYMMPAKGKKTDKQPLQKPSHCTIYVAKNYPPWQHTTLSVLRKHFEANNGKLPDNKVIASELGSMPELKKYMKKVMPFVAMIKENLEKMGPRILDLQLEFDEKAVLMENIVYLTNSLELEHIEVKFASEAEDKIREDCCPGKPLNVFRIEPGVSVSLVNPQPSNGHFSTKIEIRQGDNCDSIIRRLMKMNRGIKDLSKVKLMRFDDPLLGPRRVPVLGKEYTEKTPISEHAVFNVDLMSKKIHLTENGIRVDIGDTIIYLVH
UniProt P09382, whole entry, looked up: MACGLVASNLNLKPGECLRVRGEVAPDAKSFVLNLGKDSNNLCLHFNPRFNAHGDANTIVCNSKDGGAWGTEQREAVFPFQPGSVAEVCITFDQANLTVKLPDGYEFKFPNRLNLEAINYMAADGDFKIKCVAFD
UniProt Q8TCA0: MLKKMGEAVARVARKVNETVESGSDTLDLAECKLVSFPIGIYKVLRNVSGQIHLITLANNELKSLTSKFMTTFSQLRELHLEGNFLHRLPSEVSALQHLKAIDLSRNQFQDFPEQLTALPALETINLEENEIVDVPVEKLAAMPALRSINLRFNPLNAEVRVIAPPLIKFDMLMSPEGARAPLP
UniProt Q9NS86: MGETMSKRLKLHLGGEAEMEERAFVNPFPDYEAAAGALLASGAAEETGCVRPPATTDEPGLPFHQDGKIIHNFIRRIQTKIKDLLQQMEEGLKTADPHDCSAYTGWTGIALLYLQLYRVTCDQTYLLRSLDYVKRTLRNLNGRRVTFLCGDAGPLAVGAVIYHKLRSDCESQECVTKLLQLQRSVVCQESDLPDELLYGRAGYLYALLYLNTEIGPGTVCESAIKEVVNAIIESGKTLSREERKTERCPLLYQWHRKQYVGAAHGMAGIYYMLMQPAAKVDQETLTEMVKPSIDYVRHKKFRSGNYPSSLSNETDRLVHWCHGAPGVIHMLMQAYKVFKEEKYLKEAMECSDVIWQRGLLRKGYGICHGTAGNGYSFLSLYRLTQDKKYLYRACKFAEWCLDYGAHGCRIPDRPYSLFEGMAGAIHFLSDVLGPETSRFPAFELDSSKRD
UniProt Q9UN81: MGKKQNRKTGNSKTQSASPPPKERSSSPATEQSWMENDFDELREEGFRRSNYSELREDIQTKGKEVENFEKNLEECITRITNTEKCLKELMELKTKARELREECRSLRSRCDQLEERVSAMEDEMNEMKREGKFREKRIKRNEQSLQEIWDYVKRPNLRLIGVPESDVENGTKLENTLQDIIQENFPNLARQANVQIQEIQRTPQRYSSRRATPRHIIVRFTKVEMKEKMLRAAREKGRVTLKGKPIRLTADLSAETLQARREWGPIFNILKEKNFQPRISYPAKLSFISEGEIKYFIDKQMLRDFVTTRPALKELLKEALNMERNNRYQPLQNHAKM
UniProt P30533, whole entry, looked up: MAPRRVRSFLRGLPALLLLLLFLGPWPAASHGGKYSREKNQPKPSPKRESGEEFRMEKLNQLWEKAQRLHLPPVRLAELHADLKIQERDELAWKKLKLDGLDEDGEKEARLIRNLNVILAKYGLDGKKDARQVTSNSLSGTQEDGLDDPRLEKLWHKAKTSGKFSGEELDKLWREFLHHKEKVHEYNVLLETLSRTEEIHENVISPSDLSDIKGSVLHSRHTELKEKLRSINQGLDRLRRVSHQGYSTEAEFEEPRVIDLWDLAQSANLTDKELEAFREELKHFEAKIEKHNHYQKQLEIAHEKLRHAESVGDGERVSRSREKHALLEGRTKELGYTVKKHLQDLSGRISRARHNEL
UniProt O94898: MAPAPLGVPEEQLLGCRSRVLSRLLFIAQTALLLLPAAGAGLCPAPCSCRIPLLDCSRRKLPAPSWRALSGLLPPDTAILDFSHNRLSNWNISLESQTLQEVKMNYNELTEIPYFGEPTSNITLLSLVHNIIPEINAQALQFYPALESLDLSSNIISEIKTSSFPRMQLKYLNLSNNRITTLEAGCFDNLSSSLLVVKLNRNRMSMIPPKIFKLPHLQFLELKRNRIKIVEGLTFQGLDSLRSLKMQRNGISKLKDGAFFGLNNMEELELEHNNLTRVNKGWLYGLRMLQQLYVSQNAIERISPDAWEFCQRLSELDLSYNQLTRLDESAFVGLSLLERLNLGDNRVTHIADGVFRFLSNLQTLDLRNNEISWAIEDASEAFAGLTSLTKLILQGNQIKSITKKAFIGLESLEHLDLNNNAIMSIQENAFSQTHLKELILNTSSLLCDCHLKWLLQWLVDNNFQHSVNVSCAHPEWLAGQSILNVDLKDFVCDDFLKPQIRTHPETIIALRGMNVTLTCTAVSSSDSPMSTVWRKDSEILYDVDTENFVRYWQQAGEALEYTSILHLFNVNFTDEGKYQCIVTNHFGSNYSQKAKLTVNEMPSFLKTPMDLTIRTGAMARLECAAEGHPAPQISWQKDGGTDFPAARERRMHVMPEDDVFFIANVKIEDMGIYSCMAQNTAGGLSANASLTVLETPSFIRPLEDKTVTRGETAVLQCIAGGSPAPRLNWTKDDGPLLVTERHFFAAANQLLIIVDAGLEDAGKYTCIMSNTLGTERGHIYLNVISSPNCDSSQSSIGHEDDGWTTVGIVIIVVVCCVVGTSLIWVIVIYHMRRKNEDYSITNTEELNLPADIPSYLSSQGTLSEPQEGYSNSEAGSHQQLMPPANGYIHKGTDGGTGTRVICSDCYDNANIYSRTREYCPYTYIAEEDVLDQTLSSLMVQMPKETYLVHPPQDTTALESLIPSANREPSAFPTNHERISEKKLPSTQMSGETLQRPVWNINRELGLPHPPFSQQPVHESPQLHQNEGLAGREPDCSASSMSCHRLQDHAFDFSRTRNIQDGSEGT
UniProt O60294: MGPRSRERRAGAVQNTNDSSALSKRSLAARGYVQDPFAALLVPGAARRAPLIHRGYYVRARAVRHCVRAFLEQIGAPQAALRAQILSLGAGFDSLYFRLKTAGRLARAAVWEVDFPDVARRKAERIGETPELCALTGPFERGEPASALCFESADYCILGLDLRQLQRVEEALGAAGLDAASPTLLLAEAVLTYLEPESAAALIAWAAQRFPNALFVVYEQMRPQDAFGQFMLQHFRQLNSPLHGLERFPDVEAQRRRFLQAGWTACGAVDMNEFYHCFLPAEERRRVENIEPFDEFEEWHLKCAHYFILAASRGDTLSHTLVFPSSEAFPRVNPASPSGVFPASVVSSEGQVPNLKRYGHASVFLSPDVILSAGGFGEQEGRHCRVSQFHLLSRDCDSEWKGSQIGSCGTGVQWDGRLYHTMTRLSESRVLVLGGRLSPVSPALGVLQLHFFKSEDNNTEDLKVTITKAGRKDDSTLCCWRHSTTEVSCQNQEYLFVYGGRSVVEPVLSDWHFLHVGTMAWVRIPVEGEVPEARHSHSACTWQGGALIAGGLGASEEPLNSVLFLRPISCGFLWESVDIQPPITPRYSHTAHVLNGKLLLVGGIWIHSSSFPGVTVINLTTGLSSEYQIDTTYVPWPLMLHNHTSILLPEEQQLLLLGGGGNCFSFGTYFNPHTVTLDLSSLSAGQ
UniProt Q9NUP9: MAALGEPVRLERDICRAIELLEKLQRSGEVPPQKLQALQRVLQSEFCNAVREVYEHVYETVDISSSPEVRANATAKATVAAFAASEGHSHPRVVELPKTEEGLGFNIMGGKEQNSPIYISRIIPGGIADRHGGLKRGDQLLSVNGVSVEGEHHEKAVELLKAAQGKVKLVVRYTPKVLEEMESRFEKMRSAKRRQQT

The other results are listed elsewhere or left out.

Compound in one test: CN(C)CC(=O)Nc1ccc2[nH]c(=O)c3ccccc3c2c1
The test is described as follows: log2 fold change, soluble protein after heating vs DMSO (PISA); higher = thermal stabilisation; K562 cells, 10 uM, 30 min; active = over 0.2 and 3.5 SD of the protein, either way, in both replicates (recomputed). A digest of the protocol: (§1)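 K562 cells at 2×10^6 cells/mL were given 10 μM compound for 30 min. Aliquots then went through 3 min of heating across 48°C-58°C, were pooled, and were extracted in PBS with 0.5% NP-40 at 4°C, and the supernatant after 21,000xg for 90 min was quantified by TMTpro 16plex LC-MS/MS with channel sums equalised. Thermal stability relative to control samples, from duplicates, is given as log2 fold change.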
Take KYNU (UniProt Q16719): the log2 fold change was inactive: -0.045.
As for KTN1 (UniProt Q86UP2), the log2 fold change was inactive: 0.006.
On to LPIN3 isoform 2 (UniProt Q9BQK8), for which the log2 fold change was inactive: -0.054.
For the target LDHA isoform 3 (UniProt P00338), the log2 fold change is inactive: -0.014.
Take KYAT3 (UniProt Q6YP21): the log2 fold change is inactive: -0.013.
Consider LASP1 (UniProt Q14847), for which the log2 fold change is inactive: -0.014.
For LCLAT1 (UniProt Q6UWP7), the log2 fold change is inactive: 0.005.
Consider LAMTOR4 (UniProt Q0VGL1), for which the log2 fold change is inactive: -0.053.
Take LLPH (UniProt Q9BRT6): the log2 fold change is inactive: -0.238.
Consider LMAN2 (UniProt Q12907), for which the log2 fold change is inactive: -0.01.
As to LPIN2 (UniProt Q92539), the log2 fold change is inactive: -0.054.
Turning to LARP7 isoform 3 (UniProt Q4G0J3), the log2 fold change was inactive: 0.064.
The same measure, in the same setting: as for LARS (UniProt Q9P2J5), the figure is inactive: 0.008; as for LAMTOR5 (UniProt O43504), inactive: 0.294; as for LRRC59 (UniProt Q96AG4), inactive: 0.007.
With LGALS1 (UniProt P09382), the log2 fold change was inactive: 0.017.
On the same count and under the same terms, with LIMK2 isoform 3 (UniProt P53671) the figure was inactive: -0.119; with LIN7A (UniProt O14910), inactive: 0.033.
For the target LRRC20 (UniProt Q8TCA0), the log2 fold change was inactive: 0.108.
On to LRRC57 (UniProt Q8N9N7), for which the log2 fold change was inactive: 0.006.
With LANCL2 (UniProt Q9NS86), the log2 fold change was inactive: -0.02.
Regarding LMNA (UniProt P02545), the log2 fold change is inactive: 0.009.
LMNB2 (UniProt Q03252): the log2 fold change was inactive: -0.033.
With LRRC47 (UniProt Q8N1G4), the log2 fold change was inactive: 0.009.
Consider L1RE1 (UniProt Q9UN81), for which the log2 fold change is inactive: 0.008.
On to LRPAP1 (UniProt P30533), for which the log2 fold change is inactive: -0.032.
LRIG2 (UniProt O94898): the log2 fold change is inactive: -0.058.
Same read-out and setting: as for LCMT2 (UniProt O60294), the figure is inactive: -0.069.
Still for that read-out and setting: with LIN7C (UniProt Q9NUP9) the figure was inactive: -0.022; with LRRC4B (UniProt Q9NT99), inactive: 0.017.

Compound in the next test: CN(CCOC1=CC=C(C=C1)C[C@H]2C(=O)NC(=O)S2)C3=CC=CC=N3 (racemic) [rosiglitazone]
Described as above. In short, it runs like this:
as §1
In the case of KYNU (UniProt Q16719), the log2 fold change is inactive: -0.026.
As for LDHA isoform 3 (UniProt P00338), the log2 fold change is inactive: 0.004.
Regarding KYAT3 (UniProt Q6YP21), the log2 fold change was inactive: -0.006.
As to LASP1 (UniProt Q14847), the log2 fold change is inactive: 0.004.
With LCLAT1 (UniProt Q6UWP7), the log2 fold change was inactive: 0.011.
Consider LAMTOR4 (UniProt Q0VGL1), for which the log2 fold change was inactive: 0.014.
Same read-out and setting: with LLPH (UniProt Q9BRT6) the figure was inactive: -0.199; with LMAN2 (UniProt Q12907), inactive: 0.01; with LPIN2 (UniProt Q92539), inactive: -0.024.
With LLGL2 (UniProt Q6P1M3), the log2 fold change is inactive: 0.001.
Still for that read-out and setting: as for LARS (UniProt Q9P2J5), the figure is inactive: -0.062; as for LAMTOR5 (UniProt O43504), inactive: -0.106; as for LRRC59 (UniProt Q96AG4), inactive: 0.028.
As for LGALS1 (UniProt P09382), the log2 fold change was inactive: -0.009.
As for LIMK2 isoform 3 (UniProt P53671), the log2 fold change is inactive: 0.041.
Consider LIN7A (UniProt O14910), for which the log2 fold change was inactive: 0.026.
Regarding LRRC20 (UniProt Q8TCA0), the log2 fold change was inactive: 0.063.
For LRRC57 (UniProt Q8N9N7), the log2 fold change is inactive: 0.045.
Same read-out and setting: with LANCL2 (UniProt Q9NS86) the figure was inactive: -0.012.
Take LRRC47 (UniProt Q8N1G4): the log2 fold change is inactive: 0.02.
As for L1RE1 (UniProt Q9UN81), the log2 fold change is inactive: -0.174.
On to LRPAP1 (UniProt P30533), for which the log2 fold change is inactive: -0.003.
The same measure, in the same setting: as for LRIG2 (UniProt O94898), the figure is inactive: 0.054.
For the target LCMT2 (UniProt O60294), the log2 fold change is inactive: -0.006.
Regarding LIN7C (UniProt Q9NUP9), the log2 fold change was inactive: -0.006.
As to LETMD1 isoform 7 (UniProt Q6P1Q0), the log2 fold change is inactive: 0.064.
On to LRRC4B (UniProt Q9NT99), for which the log2 fold change is inactive: -0.152.

Compound in the next test: CN1C2=C(C3=C1C(=O)N(N=C3)CC4=CC(=CC=C4)N)SC(=C2)S(=O)C
The description is as above. A digest of the protocol: as §1
As for KYNU (UniProt Q16719), the log2 fold change is inactive: -0.038.
On to KTN1 (UniProt Q86UP2), for which the log2 fold change was inactive: 0.127.
The same measure, in the same setting: with LPIN3 isoform 2 (UniProt Q9BQK8) the figure was inactive: 0.002.
With LDHA isoform 3 (UniProt P00338), the log2 fold change was inactive: -0.081.
As for KYAT3 (UniProt Q6YP21), the log2 fold change was inactive: -0.025.
For the target LASP1 (UniProt Q14847), the log2 fold change is inactive: -0.025.
As for LCLAT1 (UniProt Q6UWP7), the log2 fold change was inactive: -0.017.
Consider LAMTOR4 (UniProt Q0VGL1), for which the log2 fold change is inactive: 0.043.
In the case of LLPH (UniProt Q9BRT6), the log2 fold change was inactive: 0.467.
Take LMAN2 (UniProt Q12907): the log2 fold change was inactive: -0.006.
As for LPIN2 (UniProt Q92539), the log2 fold change was inactive: -0.037.
As for LARP7 isoform 3 (UniProt Q4G0J3), the log2 fold change is inactive: 0.014.
Turning to LARS (UniProt Q9P2J5), the log2 fold change is inactive: 0.266.
On to LAMTOR5 (UniProt O43504), for which the log2 fold change is inactive: -0.131.
Consider LRRC59 (UniProt Q96AG4), for which the log2 fold change was inactive: -0.08.
Take LGALS1 (UniProt P09382): the log2 fold change is inactive: -0.041.
As to LIMK2 isoform 3 (UniProt P53671), the log2 fold change is inactive: -0.039.
On to LIN7A (UniProt O14910), for which the log2 fold change is inactive: -0.052.
With LRRC20 (UniProt Q8TCA0), the log2 fold change was inactive: -0.086.
In the case of LRRC57 (UniProt Q8N9N7), the log2 fold change was inactive: -0.088.
Regarding LANCL2 (UniProt Q9NS86), the log2 fold change was inactive: -0.045.
Regarding LMNA (UniProt P02545), the log2 fold change is inactive: -0.006.
Regarding LMNB2 (UniProt Q03252), the log2 fold change is inactive: -0.01.
For LRRC47 (UniProt Q8N1G4), the log2 fold change was inactive: -0.079.
Turning to L1RE1 (UniProt Q9UN81), the log2 fold change was inactive: 0.263.
On to LRPAP1 (UniProt P30533), for which the log2 fold change is inactive: -0.061.
For LRIG2 (UniProt O94898), the log2 fold change was inactive: 0.105.
As to LCMT2 (UniProt O60294), the log2 fold change was inactive: 0.03.
Consider LIN7C (UniProt Q9NUP9), for which the log2 fold change was inactive: -0.111.
Same read-out and setting: as for LETMD1 isoform 7 (UniProt Q6P1Q0), the figure is inactive: -0.07; as for LRRC4B (UniProt Q9NT99), inactive: 0.
